Measurements as given in PubChem BioAssay AID1487 (National Center for Advancing Translational Sciences (NCATS), 2009).
The campaign covered roughly 200,000 compounds. About 25 (0.01%) were called active. The shares of active, inactive and inconclusive entries below differ from those in the screen. Calls follow the shape of the dose curve; as a rule, active = well fitted inhibition curve with a large enough effect in the signal ratio, with a control signal flat (not every such curve was filed as active); inconclusive = small, poorly fitted or top-dose-only effect, or effect the other way, or a change in a side signal; inactive = flat fitted curve, though single readings scatter; the % refers to the signal ratio. Potencies of inconclusive entries are doubtful fits and often do not repeat.

assay: qHTS Assay for Modulators of Lamin A Splicing; settings: HeLa LMNA splicing GFP/RFP minigene ratio, 48 h; ratio change, negative = inhibition: at 46.1 µM (top of the series) unless noted
How it was run: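 S3 HeLa stable clones carrying a lamin A-EGFP splicing minigene plus DsRed2 were seeded at 600 cells/well in Opti-MEM with 2% FBS, pin-dosed and incubated 48 h at 37°C. Acumen cytometry (488 nm) gave the GFP/RFP total-intensity ratio.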
% is scaled to controls: 0 for no effect and ±100 for the full control effect; potency is read from the fitted curve at half-maximal effect.

Structure (SMILES) | ratio change, negative = inhibition | Potency
CCOC(=O)N1CCN(C(=O)c2ccccc2Oc2ccccc2)CC1 | inactive: 7.7% | 
COc1ccc(/C=N/NC(=O)c2ccncc2)cc1CN1CCN(c2ccc(F)cc2)CC1 | inconclusive: 2.84% [at 46 µM] | 
Oc1c(C(c2ccc(Cl)cc2)N2CCC3(CC2)OCCO3)sc2nc(-c3ccco3)nn12 (stereo not given) | inactive: 23% [at 46 µM] | 
Clc1ccc(-c2noc(CN3CCN(c4ccccc4)CC3)n2)cc1 |  | inconclusive: 35.5 µM [falling, single point]
N#CC(C#N)=C1C=CC=CN1/C(=C\c1ccccc1Cl)C(=O)c1ccccc1 | inconclusive: 12.3% | 
Fc1ccc(NC(=S)NNc2ncc(C(F)(F)F)cc2Cl)c(F)c1 | inconclusive: -37.2% [at 46 µM] | 
Cc1cc(NCCN2CCOCC2)c2ccc3ccccc3c2n1 |  | inconclusive: 11.2 µM [inhibitor, single point]
Cc1cnnn1-c1cccc([N+](=O)[O-])c1 | inactive: 2.42% [at 46 µM] | 
O=C(CSc1nnc(SCC(=O)NCc2ccc3c(c2)OCO3)s1)NCc1ccc2c(c1)OCO2 | inactive: -3.97% | 
N#Cc1c(N)nc(N)nc1Nc1ccc(Br)cc1 | inconclusive: 31.2% [at 46 µM] | 
N=c1c(C(=O)NCc2ccco2)cc2c(=O)n3ccccc3nc2n1Cc1ccc(Cl)cc1 |  | inconclusive: 35.5 µM [rising, single point]
O=C(CSc1nc2nc(-c3cccs3)cc(C(F)(F)F)c2c(=O)[nH]1)NCc1ccco1 | inconclusive: -30% | 
NNC(=O)/C(=C/c1cccs1)NC(=O)c1ccccc1Cl | inactive: 0.482% [at 46 µM] | 
Cn1c(SCc2cccc(F)c2)nc2c([nH]c3ccccc32)c1=O | inactive: -4.2% [at 46 µM] | 
CCCn1ccc2c(OCC(=O)Nc3ccccc3OCC)cccc2c1=O | inconclusive: -3.47% [at 46 µM] | 
Cc1ccc(C)c(NS(=O)(=O)c2ccc3c(c2)n(C)c(=O)n3C)c1 | inconclusive: 23.8% [at 46 µM] | 
CCOc1ccc(C(CC(=O)O)NC(=O)c2sc3ccccc3c2Cl)cc1 (stereo not given) | inactive: -10.5% | 
CS(=O)(=O)Nc1ccc(Br)cc1C(=O)c1ccccc1 | inactive: 25.4% | 
CCn1c(SCC(=O)N2CCC(C)CC2)nnc1-c1ccccc1O | inconclusive: 9.76% [at 46 µM] | 
CCOCCCNC(=O)Nc1cc(C(=O)NCc2ccc(C(C)C)cc2)ccc1N1CCCC1 |  | inconclusive: 25.1 µM [inhibitor, single point]
CC1=C(SCCC#N)S/C(=C2\SC(C)=C(SCCC#N)S2)S1 | inactive: 16.4% | 
O=c1c2[nH]c3ccc(Br)cc3c2ncn1CCCn1ccnc1 | inconclusive: -10.7% | 
CC(=O)Nc1cccc(NC(=O)c2c(-c3ccccc3)noc2C)c1 | inactive: -4.51% | 
c1ccc(CCc2nc(-c3ccccc3)no2)cc1 | inactive: -9.13% | 
COc1ccc(C)cc1S(=O)(=O)N1CCC(C(=O)NCCc2ccccc2)CC1 | inconclusive: 3.53% | 
O=C(NCCc1ccccc1)c1c(O)c2cccc3c2n(c1=O)CC3 | inconclusive: -34.9% | 
COc1cccc(CNc2ncc(-c3ccc(Br)cc3)n2C)c1 | inconclusive: -11.8% [at 46 µM] | 

One compound at a time (already shown):
COc1cccc(CNc2ncc(-c3ccc(Br)cc3)n2C)c1 in the list: ratio change, negative = inhibition: inconclusive: -11.8% [at 46 µM]
O=C(NCCc1ccccc1)c1c(O)c2cccc3c2n(c1=O)CC3 in the list: ratio change, negative = inhibition: inconclusive: -34.9%
Cn1c(SCc2cccc(F)c2)nc2c([nH]c3ccccc32)c1=O in the list: ratio change, negative = inhibition: inactive: -4.2% [at 46 µM]
CCOC(=O)N1CCN(C(=O)c2ccccc2Oc2ccccc2)CC1 in the list: ratio change, negative = inhibition: inactive: 7.7%

The list continues:

Structure (SMILES) | ratio change, negative = inhibition | Potency
CCOC(=O)c1cc(-c2ccccc2)sc1NC(=O)C(C)Sc1nnc(N)s1 (stereo not given) |  | inconclusive: 35.5 µM [falling, single point]
COc1cccc2sc(N3CCN(C(=O)CS(=O)(=O)c4ccc(Cl)cc4)CC3)nc12 | inconclusive: -9.15% [at 46 µM] | 
CC1(C)C/C(=N\NC(=S)Nc2ccccc2F)c2cc(O)ccc2O1 |  | inconclusive: 35.5 µM [activator, single point]
Cc1cc(C)c(S(=O)(=O)N2CCN(Cc3nc4ccc(C)cc4o3)CC2)c(C)c1 | inconclusive: -24.9% [at 46 µM] | 
COc1ccc(CN2CCN(S(=O)(=O)c3ccc(NC(C)=O)cc3)CC2)cc1OC | inconclusive: -24.9% | 
O=C(O)CC(NS(=O)(=O)c1ccc(Br)s1)c1ccccc1 (stereo not given) | inactive: -13.6% [at 46 µM] | 
O=C(N/N=C/c1cc(Br)ccc1O)c1ccccc1Cl |  | inconclusive: 35.5 µM [fluorescent, single point]
O=c1cc(-c2ccccc2)nc2nc(-c3ccco3)[nH]n12 | inactive: 14.9% | 
C=CCN1C(=O)S/C(=C\c2ccc(N3CCOCC3)cc2C)C1=O | inconclusive: 2.68% | 
N#C/C(C(=O)N1CCOCC1)=c1/s/c(=C\c2ccccn2)c(=O)n1-c1ccccc1 | inactive: 2.25% [at 46 µM] | 
CC(C)(C)OC(=O)N1CCC(c2c(C(=O)NCCN3CCCC3)cnn2-c2ccc(Cl)cc2)CC1 | inactive: 1.2% [at 46 µM] | 
Cc1ccc(NC(=O)c2ccc(CNc3c(N4CCOCC4)c(=O)c3=O)cc2)cc1 | inactive: 0.279% | 
O[C@@H](CNC[C@H](O)c1ccccc1)c1ccccc1 | inactive: 0.797% | 
CCC(=O)N1C2=C(c3ccccc3[C@@H]1CC(=O)Nc1ccc3ccccc3c1)[C@@H]1C(=O)N(c3ccccc3)C(=O)[C@@H]1[C@H](C)C2 | inconclusive: -19% [at 9.22 µM] | 
Cc1cc(C)n2nc(-c3ccco3)nc2n1 | inconclusive: 10.8% [at 46 µM] | 
CCC(CC)c1nnc(NC(=O)c2cccnc2SC)s1 | inconclusive: -9.04% [at 46 µM] | 
Cc1ccccc1CN1C(=O)C(O)(CC(=O)c2ccccc2)c2cc(Cl)ccc21 (stereo not given) | inconclusive: 20.5% [at 46 µM] | 
COc1cc(C(=O)Nc2nc(C)c(Cc3ccc4c(c3)OCO4)s2)cc(OC)c1OC | inconclusive: -28.4% | 
O=C(CN1C(=O)S/C(=C\C=C\c2ccccc2)C1=O)Nc1ccc(O)cc1 | inactive: -5.36% | 
COC(=O)c1ccccc1NC(=O)CN1CCC(n2nnc3cc(C)ccc32)CC1 | inconclusive: 12.5% | 
O=C(Nc1nc(-c2cccs2)c(-c2ccccc2)s1)c1ccco1 | inconclusive: -29% | 
COc1ccc(-c2nc3scc(CCNS(=O)(=O)c4c(C)noc4C)n3n2)cc1OC | inactive: -6.11% [at 46 µM] | 
CSc1ncccc1C(=O)OCC(=O)c1cccc(Br)c1 | inconclusive: 0.719% [at 46 µM] | 
CC(=O)c1cccc(NC(=O)CSc2nnc3ccc(-c4ccc(F)cc4)nn23)c1 | inconclusive: 23% [at 46 µM] | 
Cn1nc(C(=O)NCCOc2ccccc2)c2ccccc2c1=O | inconclusive: 19% [at 46 µM] | 
COc1cc(/C=N/Nc2nc(C)nc3c2cnn3-c2ccccc2)ccc1O | inconclusive: -23.6% [at 46 µM] | 
COc1cccc(-n2ccnc2SCC(=O)Nc2cc(OC)ccc2OC)c1 | inconclusive: -21.9% | 

Structure (SMILES) | ratio change, negative = inhibition | Potency
Cc1ccc(N2CC(C(=O)NCCS(=O)(=O)N3CCN(c4ccccc4)CC3)CC2=O)cc1C (stereo not given) | inconclusive: 12% [at 46 µM] | 
O=C(Cn1cnc2c(cnn2-c2ccccc2)c1=O)NCc1ccccc1 | inconclusive: -4.79% | 
O=C(O)CC/C(=N/Nc1ncc(C(F)(F)F)cc1Cl)C(=O)O | inconclusive: 0.0535% [at 46 µM] | 
Cc1cc2cc(CNC(=O)CCC(=O)O)ccc2[nH]1 | inactive: 1.15% | 
COc1ccc(S(=O)(=O)N(Cc2ccccc2)c2ccccc2C(=O)Nc2ccccc2C(=O)NCc2ccco2)cc1 | inactive: -1.74% | 
COc1ccc(-c2nc3ccc(NS(C)(=O)=O)cc3o2)cc1 | inconclusive: 13.7% [at 46 µM] | 
Cn1c(SCC(N)=O)nc2c([nH]c3ccccc32)c1=O | inconclusive: -14.3% [at 46 µM] | 
COc1ccc(C2CC(c3ccc(OC)cc3)n3nc(NC(=O)c4cccs4)nc3N2)cc1 (stereo not given) | inconclusive: 39.5% | 
COc1cccc(NC(=O)c2ccc(C(=O)c3ccccc3)o2)c1 |  | inconclusive: 11.2 µM [inhibitor, single point]
CN(c1ncnc2c1c(-c1ccccc1)cn2-c1ccc(F)cc1)C1CCCCC1 |  | inconclusive: 8.91 µM [falling, partial curve, poor fit]
COc1cc2cc(CN(Cc3nnnn3C3CCCC3)C3CCCC3)c(=O)[nH]c2cc1OC | inactive: -2.28% | 
O=C(O)[C@@H]1[C@@H]2C[C@H]3c4[nH]c5ccccc5c4CCN3C[C@@H]2CC[C@@H]1O | inconclusive: -16.8% | 
COc1ccc(-c2csc(NC(=O)c3ccccc3NS(=O)(=O)c3ccc(F)c(F)c3)n2)cc1 | inactive: 31.8% [at 46 µM] | 
CCSc1nnc(-c2ccc(OC)cc2)o1 | inactive: 9.12% | 
O=C(NC1CCCC1)C(=O)N(Cc1cccnc1)C(C(=O)NCC1CCCO1)c1ccco1 (stereo not given) | inconclusive: 24.9% [at 46 µM] | 
COc1cccc(/C=N/NC(=O)CC(=O)NCCc2ccccc2)c1OC | inconclusive: -3.68% | 
NC(=O)c1c(NC(=O)C2CCCO2)sc2c1CCC2 (stereo not given) | inactive: 12.2% | 
CCOc1ccccc1NC(=O)CCSc1nc2n[nH]c(C)c2c(=N)n1-c1ccccc1Cl | inactive: 8.29% | 
Cc1onc(-c2ccccc2Cl)c1C(=O)OCC(=O)Nc1cccc(S(=O)(=O)N2CCOCC2)c1 | inconclusive: -50.7% [at 46 µM] | 
O=C1CCc2cc(S(=O)(=O)NCc3ccc(Cl)cc3)cc3c2N1CC3 | inconclusive: -1.67% [at 46 µM] | 
Cc1ccccc1CNC(=O)c1ccccc1NC(=O)c1nsc2ccccc12 | inconclusive: -1.45% [at 46 µM] | 
O=C(Nc1ccc(Cl)c(C(F)(F)F)c1)C1CCCN(S(=O)(=O)c2cccc3cccnc23)C1 (stereo not given) | inconclusive: -20.1% [at 46 µM] | 
Cc1ccc(CNC(=O)c2cc3cc(C)ccc3n2C)cc1 |  | inconclusive: 1.58 µM [inhibitor, full curve]
Cc1cc([N+](=O)[O-])nn1CC(=O)Nc1ccc(F)cc1 | inconclusive: 20.6% [at 46 µM] | 
O=C(Nc1ccc(Cc2ccncc2)cc1)c1cc(F)c(F)cc1Cl | inconclusive: 9.08% [at 46 µM] | 
CSC1=NCCN1C(=O)c1c(F)cccc1Cl | inactive: 5.73% | 
